Data on one molecule can be found in PMC11881160 (International Journal of Nanomedicine, 2025).

Like-named read-outs stand apart in the source and are kept apart here. Marks after values point to notes of the source that are not given here.

As a reminder, the Km is the concentration of substrate that gives half-maximal velocity. In general, Vmax refers to the rate approached at saturating substrate.

The conditions of series [1]: PBPK model input; ref Chemical book; cited from earlier work.
Series [2] deals with CYP450s of Rat Liver Microsomes (RLMs). The series can be described thus: In vitro CYP450 metabolism of ATV and inhibition by LUT in rat liver microsomes. As to conditions: mean ± SD, n = 3. On the technique in general: Liver microsomes are a subcellular fraction often used to study metabolism.
For series [3] the following is noted: rats.
The mark [4] stands for this setting: formation of 2-OH-ATV in RLMs, ATV + 5μM LUT.
Where [5] appears, read: formation of 2-OH-ATV in RLMs, ATV + 10μM LUT.
[6] abbreviates: formation of 2-OH-ATV in RLMs, ATV without LUT.
Setting [7] is: formation of 4-OH-ATV in RLMs, ATV + 5μM LUT.
Where [8] appears, read: formation of 4-OH-ATV in RLMs, ATV + 10μM LUT.
Where [9] appears, read: formation of 4-OH-ATV in RLMs, ATV without LUT.

As for `CC(C)c1c(C(=O)Nc2ccccc2)c(-c2ccccc2)c(-c2ccc(F)cc2)n1CC[C@@H](O)C[C@@H](O)CC(=O)O` [ATV, Atorvastatin], the Drug particle density in series [1] is 1.23 ± 0.1^d g/mL. Moreover, the Km came to 6.51 ± 0.27 µM in series [2] (setting [4]); 5.56 ± 0.22 µM in series [2] (setting [5]); 6.55 ± 0.1 µM in series [2] (setting [6]); 13.1 ± 3.1 µM in series [2] (setting [7]); 15.7 ± 2.37 µM in series [2] (setting [8]); 4.5 ± 0.14 µM in series [2] (setting [9]). In addition, the Vmax is 16.99 ± 0.26 pmol/min/mg in series [2] (setting [4]); 13.66 ± 0.05 pmol/min/mg in series [2] (setting [5]); 22.27 ± 0.16 pmol/min/mg in series [2] (setting [6]); 16.95 ± 2.20 pmol/min/mg in series [2] (setting [7]); 12.04 ± 1.03 pmol/min/mg in series [2] (setting [8]); 23.75 ± 0.64 pmol/min/mg in series [2] (setting [9]). The “Increase of Cmax of ATV” value is given as 1.87 fold in series [3] (co-administered with LUT versus ATV alone) and 5.42 fold in series [3] (co-administered with LUT-NS-LP versus ATV alone).
